No constants are given. Whether binding was seen depends on the method and setting. In cells and extracts the contact can be indirect. For some assays here: Binding calls can cover weak binding; strength is not graded here. For some assays here: Sequences can lack the tags named with a protein.
What was measured:
[1] = biological target: T1, testes-specific protease 50 (TSP50), endogenous (human (endogenous in MCF7 and MDA-MB-231)) (UniProt Q9UI38); experiment: co-IP; IP with anti-TSP50 antibody on protein A/G magnetic beads from MCF7 and MDA-MB-231 cells; Western blot with anti-AKT, anti-p85α or anti-p110α
T1 sequence: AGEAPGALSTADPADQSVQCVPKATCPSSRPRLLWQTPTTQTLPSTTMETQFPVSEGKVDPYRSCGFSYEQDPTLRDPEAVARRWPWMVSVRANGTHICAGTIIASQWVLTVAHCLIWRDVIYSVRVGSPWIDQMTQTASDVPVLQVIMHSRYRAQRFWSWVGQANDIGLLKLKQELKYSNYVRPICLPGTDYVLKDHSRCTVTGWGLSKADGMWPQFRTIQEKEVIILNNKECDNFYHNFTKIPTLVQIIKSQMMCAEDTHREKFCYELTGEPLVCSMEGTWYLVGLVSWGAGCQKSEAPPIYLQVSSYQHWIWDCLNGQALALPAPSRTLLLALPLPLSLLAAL

[2] = biological target: T2, Flag-TSP50 wild type (UniProt Q9UI38); experiment: co-IP; Myc-tagged p110α domain plasmids co-transfected with Flag-TSP50 plasmid into MDA-MB-231 cells; precipitating antibody not stated for this panel
T2 sequence: T1 sequence

binding [1]	binding [2]	Substance
no binding	–	AKT, endogenous (enzyme)
–	binds	Myc-tagged p85 binding domain (p85BD) of p110α (domain or fragment)
